According to PubChem BioAssay AID540303 (National Center for Advancing Translational Sciences (NCATS), 2011):
Hit rate of the full screen: of about 330,000 compounds, about 1,000 (0.3%) were called active. The inconclusive results got no clear call from the source; some entries with a clear call stand among them for comparison. Calls come from the whole dose curve; as a rule, active = well fitted inhibition curve with a large enough effect; inconclusive = small, poorly fitted or top-dose-only effect; inactive = no such curve, though single readings can be large or run the other way; tested in mouse RAW 264.7 cells. Where the call is inconclusive, the potency comes from a doubtful curve fit.

Experiment: qHTS for Inhibitors of Cell Surface uPA Generation; note: nearly all actives have a fitted effect of over 55% in size
Settings: cell surface uPA generation assay; series mostly up to 38.3 µM; activity change, negative = inhibition: at the top concentration
In short: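 ATP-Lite luminescence in RAW 264.7 cells after 24 h of exposure to compound, tested up to 38.3 uM final in 1:5 steps. Raised ATP reflects inhibition of uPA-dependent LF delivery to the cytoplasm.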
% is set by controls: 0 for no effect and ±100 for the full control effect; potency is the fitted concentration of half-maximal effect.

Row | Compound | Potency | activity change, negative = inhibition
1 | O=C(c1ccccc1NS(=O)(=O)c1ccc([N+](=O)[O-])cc1[N+](=O)[O-])N1O[C@@H]2C=C[C@H]1C2 | inconclusive: 10 µM [inhibitor, single point] | 
2 | COc1ccc(-c2nc3ccc(Cl)cn3c2NC2CCCCC2)cc1SC1CCCCC1 | inconclusive: 1.12 µM [inhibitor, full curve, poor fit] | 
3 | COc1ccc(C(=O)N2CCN(c3cccc(Cl)c3)CC2)cc1S(=O)(=O)NC1CC1 | inconclusive: 11.2 µM [inhibitor, partial curve, poor fit] | 
4 | Cc1ccc(NC(=O)CNC(=O)c2cccs2)nc1 |  | inactive: 3.8%
5 | CCOc1cccc(N2C(=O)CC(N3CCC(C(N)=O)(N4CCCCC4)CC3)C2=O)c1 (stereo not drawn) |  | inactive: -2.49%
6 | Cc1ccc(C2=NOC(C)(c3sc(-c4ccc(Cl)cc4)nc3C)C2)cc1 (stereo not drawn) |  | inactive: 1.8%
7 | Cc1ccn2c(CNCCCn3cccn3)c(C(=O)N3CCCCCC3)nc2c1 |  | inactive: -3.48%
8 | CC(C)Cn1c(N)c(C=O)c(=O)[nH]c1=O |  | inactive: -4.16%
9 | CC(=O)N1c2ccccc2N(Cc2ccc(C)cc2C)C(=O)C1(C)C | active: 7.08 µM | 
10 | Cc1ccc(CNC(=O)COC(=O)c2cccc(S(=O)(=O)N3CCCCC3)c2)cc1 | inconclusive: 14.1 µM [inhibitor, partial curve, poor fit] | 
11 | COc1ccc(/C=C2\SC(=S)N(CCCC(=O)N3CCCCC3CCO)C2=O)cc1 (stereo not drawn) |  | inactive: -24.6%
12 | O=C(CNc1ccccc1)N/N=C/c1c(O)ccc2ccccc12 | inconclusive: 11.2 µM [inhibitor, single point] | 
13 | C=CCC[C@@H](Cc1ccc(F)cc1)C(=O)OC[C@@H]1CCCN1C(=O)[C@H](CC=C)CC(=O)N[C@H](CO)Cc1ccccc1 | inconclusive: 7.94 µM [inhibitor, single point] | 
14 | O=C(NCc1ccccc1)C1=C[C@@H](c2ccc(Br)cc2)C[C@@H](OCc2ccc(CO)cc2)O1 | inconclusive: 12.6 µM [inhibitor, single point] | 
15 | CSc1sc(C)cc1C1C(C#N)=C(N)N(c2cccnc2)C2=C1C(=O)CC(C)(C)C2 (stereo not drawn) |  | inactive: 17.3%
16 | CNC(=O)c1cc(Oc2ccc(NC(=O)Nc3ccc(Cl)c(C(F)(F)F)c3)cc2)ccn1 | inconclusive: 28.2 µM [inhibitor, single point] | 
17 | O=C(CSc1ncnc2c1nnn2Cc1ccc(F)cc1)NCC1CCCO1 (stereo not drawn) | inconclusive: 5.62 µM [inhibitor, partial curve, poor fit] | 
18 | COC(=O)c1cc(NS(=O)(=O)c2ccc(N3CCOCC3)c(NC(C)=O)c2)cc(C(=O)OC)c1 | inconclusive: 3.16 µM [inhibitor, partial curve] | 
19 | O=C(CCN1C(=O)c2cccc([N+](=O)[O-])c2C1=O)Nc1nccs1 |  | inactive: 3.95%
20 | O=c1[nH]c(-c2cccnc2)nc2sc(-c3ccccc3)cc12 | inconclusive: 2.24 µM [inhibitor, full curve, poor fit] | 
21 | COc1ccc(C(=O)NCc2ccc(-c3nc4ccccc4s3)cc2)cc1OC |  | inactive: -2.33%
22 | Cc1cc(NC(=O)c2ccc(Cl)cc2Cl)no1 | inconclusive: 10 µM [inhibitor, partial curve, poor fit] | 

Row | Compound | Potency | activity change, negative = inhibition
23 | Cc1ccc(C)c2[nH]c(=O)c(CN(Cc3cccnc3)C(=S)NCc3ccco3)cc12 | inconclusive: 14.1 µM [inhibitor, partial curve, poor fit] | 
24 | Cc1ccc(C)n1-c1ccc(C(=O)Nc2ccccc2)cc1 | inconclusive: 11.2 µM [inhibitor, partial curve] | 
25 | COc1ccc(/C(O)=C2/C(=O)C(=O)N(c3ccccn3)C2c2ccc(C(C)C)cc2)cc1 (stereo not drawn) | inconclusive: 1.26 µM [inhibitor, full curve, poor fit] | 
26 | O=C1CC(N2CCN(Cc3ccc4c(c3)OCO4)CC2)C(=O)N1c1cccc2ccccc12 (stereo not drawn) |  | inactive: -2.08%
27 | CC1=CC(C)(C)Nc2ccc(OC(=O)CN3C(=O)CCC3=O)cc21 | inconclusive: 2.82 µM [inhibitor, full curve, poor fit] | 
28 | Cc1ccccc1N(CC(=O)NCCSCc1ccco1)S(C)(=O)=O |  | inactive: -0.73%
29 | Cc1cccc(NC(=O)CSCC(=O)N(C)Cc2ccc(Cl)c(Cl)c2)c1 | inconclusive: 5.62 µM [inhibitor, partial curve] | 
30 | Cc1ccnc(N2C(=O)c3ccccc3C2O)c1 (stereo not drawn) | inconclusive: 8.91 µM [inhibitor, partial curve, poor fit] | 
31 | CCN(C(=O)Cc1ccccc1OC)c1nnc(-c2ccncc2)s1 |  | inactive: 2.05%
32 | O=C(N/N=C/c1cccnc1)c1cc(Br)ccc1O | inconclusive: 12.6 µM [inhibitor, single point] | 
33 | C/C(=N\Nc1cccc([N+](=O)[O-])c1)c1cc(F)ccc1O | inconclusive: 11.2 µM [inhibitor, single point] | 
34 | CC(C)=CCC/C(C)=C/CNC(=O)C[C@H]1C[C@H](C(=O)N2CCOCC2)[C@@]2(CCC3CCCC3)c3[nH]c4cc(CCC(=O)N(C)C)ccc4c3CCN2C1=O | inconclusive: 28.2 µM [inhibitor, single point] | 
35 | N/C(=N\OC(=O)CC(c1ccccc1)c1ccccc1)c1cccnc1 | inconclusive: 3.16 µM [inhibitor, partial curve] | 
36 | CSCCCNC(=S)N1CCc2ccccc2C1 |  | inactive: 1.78%
37 | CCCn1c(CNC(=O)c2ccccc2)nc2ccccc21 |  | inactive: -7.21%
38 | O=C(Nc1ccc(OCc2ccccc2)cc1)Nc1cccnc1 |  | inactive: 2.59%
39 | CC[C@]12c3[nH]c4ccc(Cl)cc4c3CCN1C(=O)[C@@H](CC(=O)NCc1cccc(C(F)(F)F)c1)C[C@@H]2C(=O)N1CCN(C(=O)C2CC2)CC1 | inconclusive: 22.4 µM [inhibitor, single point] | 
40 | Clc1ccccc1/C=C/c1ccnc2ccccc12 | inconclusive: 12.6 µM [inhibitor, single point] | 
41 | COc1ccc(NC(=O)c2cc(-c3ccccc3)nc3c2cnn3C(C)C)cc1 | active: 8.91 µM | 
42 | CC(C)Oc1cccc(C(=O)C2CCCN(C(=O)CCc3cnn(C)c3)C2)c1 (stereo not drawn) | inconclusive: 2.82 µM [inhibitor, partial curve] | 
43 | Clc1nccnc1N/N=C/c1ccc(Br)cc1 | inconclusive: 10 µM [inhibitor, partial curve, poor fit] | 

Reprinted at random: 2 entries already listed.
Row | Compound | Potency | activity change, negative = inhibition
14 | O=C(NCc1ccccc1)C1=C[C@@H](c2ccc(Br)cc2)C[C@@H](OCc2ccc(CO)cc2)O1 | inconclusive: 12.6 µM [inhibitor, single point] | 
6 | Cc1ccc(C2=NOC(C)(c3sc(-c4ccc(Cl)cc4)nc3C)C2)cc1 (stereo not drawn) |  | inactive: 1.8%
